PubChem BioAssay AID504834 (National Center for Advancing Translational Sciences (NCATS), 2011)
Screen size: about 320,000 compounds; about 22,000 (6.9%) were called active. Inconclusive means that the source gave no clear call. Such entries were picked first, then a sample of the others. Calls follow the shape of the dose curve; as a rule, active = well fitted inhibition curve with a large enough effect; inconclusive = small, poorly fitted or top-dose-only effect, or another doubt; inactive = no such curve, though single readings can be large or run the other way. A potency beside an inconclusive call is a rough fit, not a confirmed value.

test: Primary qHTS for delayed death inhibitors of the malarial parasite plastid, 96 hour incubation; settings: P. falciparum luciferase reporter growth; series mostly up to 28.7 µM
Method in brief: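 Readout is luminescence from an integrated firefly luciferase in P. falciparum. Red cells, 2% hematocrit and 0.05% parasitemia final, were cultured with compound through two parasite generations (96 hours) at 37 C, 5% CO2.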
Potency is read from the fitted curve at half-maximal effect.

**Q.** Which Potency does the source give for `COc1ccc(N(C)S(=O)(=O)c2cccc(C(=O)Nc3cccc(C(=O)NC4CC4)c3)c2)cc1` here?
**A.** active: 14.7 µM

**Q.** For `N#CC1=C(N)C2=CCCC[C@H]2[C@H](c2ccccc2)C1(C#N)C#N`, which Potency is on record?
**A.** inactive

**Q.** For `O=C(c1cc(COc2ccc(F)cc2Cl)on1)N1CCN(c2cnccn2)CC1`, which Potency is on record?
**A.** inconclusive: 11.7 µM [inhibitor, single point]

**Q.** With `Cc1ccc(CC(=O)O/N=C(\N)c2cccc([N+](=O)[O-])c2)cc1` as the molecule, how does the Potency read?
**A.** active: 14.7 µM

**Q.** For `CCC(C)(C)NC(=O)CN(C(=O)CCC(=O)Nc1nccs1)c1cccc(C)c1C`, which Potency is on record?
**A.** inactive

**Q.** For `O=C1N=C(N2C=CC(=C3C=CNC=C3)C=C2)/C(=C/N=NC(=O)c2ccccc2O)S1`, which Potency is on record?
**A.** inactive

**Q.** Which Potency does the source give for `CCCNC(=O)c1cccc(C(F)(F)F)c1` here?
**A.** inactive

**Q.** Which Potency does the source give for `c1ccc(OCCCn2ccnc2)cc1` here?
**A.** inactive

**Q.** With `O=S(=O)(Nc1ccc(-c2ccc3nncn3n2)cc1)c1cc(F)ccc1F` as the molecule, how does the Potency read?
**A.** inactive

**Q.** Which Potency does the source give for `O=C(O)Cc1coc(-c2ccc(F)cc2)n1` here?
**A.** inconclusive: 0.928 µM [inhibitor, partial curve, poor fit]

**Q.** Which Potency does the source give for `CC(C)(Cc1ccc(O)cc1)NC(=O)SCc1ccccc1` here?
**A.** inactive

**Q.** Which Potency does the source give for `CC(=O)Nc1cccc(NC(=O)c2cc(Cl)ccc2Cl)c1` here?
**A.** inconclusive: 10.4 µM [inhibitor, single point]

**Q.** For `COc1ccc2cc(-c3[nH]ncc3CNCCn3nc(C)cc3C)ccc2c1`, which Potency is on record?
**A.** inconclusive: 11.7 µM [inhibitor, single point]

**Q.** Which Potency does the source give for `CC(=O)c1ccc(OC(=O)Cc2cccc3ccccc23)cc1` here?
**A.** inactive

**Q.** Which Potency does the source give for `O=C(COc1cccc(Cl)c1)Nc1cc(S(=O)(=O)N2CCOCC2)ccc1N1CCOCC1` here?
**A.** inconclusive: 16.5 µM [inhibitor, single point]

**Q.** With `O=C(N/N=C/c1ccoc1)c1cccc([N+](=O)[O-])c1` as the molecule, how does the Potency read?
**A.** inactive

**Q.** Which Potency does the source give for `CCc1nc2cccnc2n1-c1ccc(C(=O)O)cc1` here?
**A.** inactive

**Q.** For `CCCC(=O)O[C@]1(C(=O)CO)CCC2[C@@H]3CCC4=CC(=O)CC[C@]4(C)C3C(O)C[C@]21C` (stereo not given in full), which Potency is on record?
**A.** inconclusive: 4.26 µM [inhibitor, partial curve, poor fit]

**Q.** With `CCN1C(=O)[C@H]2[C@@H](c3ccc(C)cc3)N3C(=O)N(c4cccc(Cl)c4)C(=O)[C@@]3(C)[C@H]2C1=O` as the molecule, how does the Potency read?
**A.** inactive

**Q.** With `CC1CCc2c(C(=O)Nc3nccs3)csc2C1` (stereo not given) as the molecule, how does the Potency read?
**A.** inconclusive: 8.28 µM [inhibitor, partial curve, poor fit]

**Q.** For `COc1ccc(-n2nc(C(=O)NCC(=O)Nc3cccc(Cl)c3)c3ccccc3c2=O)cc1OC`, which Potency is on record?
**A.** inconclusive: 8.28 µM [inhibitor, partial curve, poor fit]

**Q.** For `Cc1ccc(-n2nc(C)c3c(C)c(CCC(=O)O)c(C)nc32)cc1`, which Potency is on record?
**A.** inconclusive: 0.147 µM [inhibitor, partial curve, poor fit]

**Q.** For `CCOC(=O)c1nnn(CC(=O)N2N=C(c3ccccc3)CC2c2ccccc2)c1C(=O)OCC` (stereo not given), which Potency is on record?
**A.** inconclusive: 11.7 µM [inhibitor, partial curve, poor fit]

**Q.** With `CCCn1c(=NC(C)=O)c(C(=O)OCC)cc2c(=O)n3ccccc3nc21` as the molecule, how does the Potency read?
**A.** inconclusive: 9.28 µM [inhibitor, single point]

**Q.** For `Cc1nc2c(o1)CCc1ccccc1C2O` (stereo not given), which Potency is on record?
**A.** inconclusive: 18.5 µM [inhibitor, single point]

**Q.** Which Potency does the source give for `COc1ccc(CCn2c(=N)c(C(=O)NCCN3CCOCC3)cc3c(=O)n4ccccc4nc32)cc1OC` here?
**A.** inconclusive: 2.62 µM [inhibitor, single point]

**Q.** Which Potency does the source give for `O=C(C1=C[C@@H](c2ccccc2)C[C@@H](OCCCCO)O1)N1CCN(Cc2ccc3c(c2)OCO3)CC1` here?
**A.** inconclusive: 8.28 µM [inhibitor, partial curve]

**Q.** Which Potency does the source give for `COc1ccc(CNC(=O)[C@H](Cc2c[nH]c3ccccc23)NC(=O)[C@@H]2Cc3ccccc3CN2)cc1` here?
**A.** inconclusive: 14.7 µM [inhibitor, single point]

**Q.** With `CS(=O)(=O)c1cnc(-c2ccccc2)nc1Sc1ccc(F)cc1` as the molecule, how does the Potency read?
**A.** inactive

**Q.** For `CCc1nnc(NC(=O)CSc2nc3c(c(=O)n2C)SC(C)C3)s1` (stereo not given), which Potency is on record?
**A.** inconclusive: 11.7 µM [inhibitor, single point]

**Q.** With `c1ccc(Nc2nc(N3CCCCC3)nc(N3CCCCC3)n2)cc1` as the molecule, how does the Potency read?
**A.** active: 9.28 µM

**Q.** With `CC(C)NC(=O)c1ccccc1NC(=O)C1COc2ccccc2O1` (stereo not given) as the molecule, how does the Potency read?
**A.** inactive

**Q.** For `COc1ccc(OC)c(/C=N/NC(=O)c2ccc3nc[nH]c3c2)c1`, which Potency is on record?
**A.** inactive

**Q.** For `Cc1ccc(Cl)c(Cn2cnc3c(cnn3C(C)(C)C)c2=O)c1F`, which Potency is on record?
**A.** inconclusive: 18.5 µM [inhibitor, single point]

**Q.** For `Cc1c(-c2ccc(OCc3ccccc3)cc2)nc2ccccc2c1C(=O)O`, which Potency is on record?
**A.** inconclusive: 18.5 µM [inhibitor, single point]

**Q.** Which Potency does the source give for `CCc1ccccc1N1CSC2=C(C#N)C(c3ccccc3F)CC(=O)N2C1` (stereo not given) here?
**A.** inactive

**Q.** Which Potency does the source give for `COc1ccc(Nc2ccc(S(=O)(=O)N3CCCCC3)cc2[N+](=O)[O-])cc1` here?
**A.** inactive

**Q.** With `CCOc1ccc2c(c1)C(C)=CC(C)(C)N2S(=O)(=O)c1ccc(NC(C)=O)cc1` as the molecule, how does the Potency read?
**A.** inactive

**Q.** For `COc1cc(NC2c3ccccc3C(=O)N2c2cc(C)ccn2)cc(OC)c1OC` (stereo not given), which Potency is on record?
**A.** inconclusive: 18.5 µM [inhibitor, single point]

**Q.** Which Potency does the source give for `O=C1CN(c2ccc(Br)cc2)C(=O)N1CC(=O)N1CCCc2ccccc21` here?
**A.** inconclusive: 11.7 µM [inhibitor, partial curve, poor fit]

**Q.** With `COc1ccc(N2CCN(C(=O)CCCSc3nc4ccccc4[nH]3)CC2)cc1` as the molecule, how does the Potency read?
**A.** active: 9.28 µM

**Q.** With `Cn1c(N)c(C(=O)COC(=O)/C=C/c2cccc(C(F)(F)F)c2)c(=O)n(C)c1=O` as the molecule, how does the Potency read?
**A.** inconclusive: 18.5 µM [inhibitor, single point]

**Q.** With `Cc1cc(C)c(C(=O)CSC2=NC(N)=C(C#N)C3(CCCCC3)C2C(N)=O)cc1C` (stereo not given) as the molecule, how does the Potency read?
**A.** inconclusive: 14.7 µM [inhibitor, partial curve, poor fit]

**Q.** For `CCOC(=O)C1=C(C)N=C2SCCC(=O)N2C1c1sccc1C` (stereo not given), which Potency is on record?
**A.** inconclusive: 0.415 µM [inhibitor, full curve, poor fit]

**Q.** With `COc1ccc(C(CC(=O)N2CCCC(C)C2)c2c(O)cc(OC)cc2OC)cc1` (stereo not given) as the molecule, how does the Potency read?
**A.** inconclusive: 0.0294 µM [inhibitor, full curve, poor fit]
